One experiment has as its target T1, Flu-SLX4_pT1260 (human).
T1 sequence (peptide, fluorescein ('Flu') on the N-terminus; phosphothreonine at Thr1260): GYGTSWLVPATPLASRSR
The experiment in a line: fluorescence polarisation; 100 nM fluorescein-labelled SLX4 peptide, increasing concentrations of TOPBP1 BRCT fragment; room temperature; 25 mM HEPES pH 7.5, 150 mM NaCl, 1 mM EDTA, 0.25 mM TCEP, 0.002% Tween 20; single site with non-specific component; both purified. A general note: Fluorescence polarisation rises when a labelled molecule tumbles more slowly, as on binding a larger partner.

For another experiment, the target named is T2, Flu-SLX4_pT1476 (human).
T2 sequence (peptide, fluorescein ('Flu') on the N-terminus; phosphothreonine at Thr1476): GYGSPGLLDTTPIRGSCT
The experiment is described as above.

These are yes or no findings as the source states them, for the method shown.

Turning to “recombinant TOPBP1 BRCT 7-8 domain containing fragment (human) (domain or fragment)”, the binding entry with Flu-SLX4_pT1260 (human) and with Flu-SLX4_pT1476 (human) was “no binding” in each case.

“recombinant TOPBP1 BRCT 4-5 domain containing fragment (human) (domain or fragment)”: the binding result with Flu-SLX4_pT1260 (human) and in the experiment with Flu-SLX4_pT1476 (human) was “no binding” in each case.

The record behind these values is paper PMC12661054, “The CIP2A-TOPBP1 axis facilitates mitotic DNA repair via MiDAS and MMEJ” (Nature Communications, 2025).
